{"source": "PubChem BioAssay AID1347075", "about": "(National Center for Advancing Translational Sciences (NCATS), 2019)", "note": "Out of some 400,000 compounds screened, about 5,500 (1.4%) were called active. Inconclusive results, whose numbers are uncertain, are shown with a selection of clear calls. Calls follow the shape of the dose curve; as a rule, active = well fitted cell-killing curve with a large enough effect; inconclusive = small, poorly fitted or top-dose-only effect, or effect the other way; inactive = flat fitted curve, though single readings scatter. Potencies of inconclusive entries are doubtful fits and often do not repeat. % is scaled to controls: 0 for no effect and ±100 for the full control effect; potency is read from the fitted curve at half-maximal effect."}
{"experiment": "qHTS assay for MDR1-selective chemotherapeutics: Primary screen using the parental adenocarcinoma cell KB-3-1; also: nearly all actives have a fitted effect of over 60% in size", "conditions": "KB-3-1 viability, CellTiter-Glo ATP luminescence, 72 h; activity change, negative = cytotoxic: at 46.1 µM (top of the series)", "procedure,_shortened": "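Cells are dispensed, compounds pinned in, plates held at 37 °C for 72 h, then CellTiter-Glo is added and luminescence read after 10 minutes. Cell line: parental KB-3-1 in phenol-red-free DMEM, 10% FBS.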"}
{"smiles": "O=C(NCc1ccccc1F)c1sc2ncccc2c1-n1cccc1", "activity change, negative = cytotoxic": "inactive: 5%"}
{"smiles": "CC(=O)NN1C(=O)c2ccc3c4c(ccc(c24)C1=O)C(=O)N(NC(C)=O)C3=O", "Potency": "inconclusive: 29.1 µM [cytotoxic, single point]"}
{"smiles": "CC(C)(C)C(=O)NC(c1ccccc1)c1c(O)ccc2ccccc12", "note": "(stereo unspecified)", "activity change, negative = cytotoxic": "inactive: 0%"}
{"smiles": "COc1ccc(-c2cc(C(F)(F)F)nc(N3CCN(C)CC3)n2)cc1", "Potency": "inconclusive: 23.1 µM [cytotoxic, single point]"}
{"smiles": "COc1ccc(NC(=O)N2CCC(Cc3ccccc3)CC2)cc1", "Potency": "inconclusive: 29.1 µM [cytotoxic, single point]"}
{"smiles": "COc1ccc(C(C(=O)NC2CCCCC2)N(C(=O)CCl)c2ccc(OC)cc2)cc1", "note": "(stereo unspecified)", "Potency": "active: 5.8 µM"}
{"smiles": "Clc1ccc(OCc2nnc3n2N=C(c2ccc4c(c2)OCCO4)CS3)c(Cl)c1", "Potency": "inconclusive: 20 µM [cytotoxic, single point]"}
{"smiles": "Cc1sc(NC(=O)CCS(=O)(=O)c2ccccc2)c(C#N)c1C", "Potency": "inconclusive: 29.1 µM [rising, single point]"}
{"smiles": "CN(CC(=O)Nn1cnnc1)S(=O)(=O)c1ccc(Br)cc1", "activity change, negative = cytotoxic": "inactive: 1.52%"}
{"smiles": "CCOc1ccc(-c2nnc(SCC(=O)NCc3ccccc3Cl)o2)cc1", "activity change, negative = cytotoxic": "inactive: 4.29%"}
{"smiles": "Cc1c(C(=O)NCc2ccc3c(c2)OCCO3)sc(=O)n1Cc1ccc(S(=O)(=O)N(C)C)cc1", "Potency": "inconclusive: 8.2 µM [cytotoxic, partial curve]"}
{"smiles": "O=C(c1ccc2nc(N3CCCCC3)sc2c1)N1CCN(Cc2ccc3c(c2)OCO3)CC1", "Potency": "inconclusive: 29.1 µM [cytotoxic, single point]"}
{"smiles": "COc1ccc(-c2cn(-c3ccccc3)c(=S)[nH]2)cc1OC", "Potency": "active: 3.26 µM"}
{"smiles": "CCNC(=S)N1CCN(S(=O)(=O)c2ccc(C)cc2)CC1", "Potency": "inconclusive: 29.1 µM [cytotoxic, single point]"}
{"smiles": "COc1cc2c(cc1NC(=O)COC(=O)C(CCSC)NC(=O)c1ccccc1Cl)oc1ccccc12", "note": "(stereo unspecified)", "activity change, negative = cytotoxic": "inactive: 2.23%"}
{"smiles": "Cc1ccc(Cl)cc1NC(=O)CCC(=O)O", "activity change, negative = cytotoxic": "inactive: 6.33%"}
{"smiles": "O=C(Nc1cccc(S(=O)(=O)Nc2ccc(Cl)cc2)c1)c1ccc2c(c1)OCCO2", "Potency": "active: 8.2 µM"}
{"smiles": "Oc1ccc(/C=N/Nc2ncc(Br)cn2)c(O)c1", "Potency": "inconclusive: 29.1 µM [cytotoxic, single point]"}
{"smiles": "CC1(C)Cc2ccccc2C(c2cc3ccccc3oc2=O)=N1", "Potency": "inconclusive: 23.1 µM [cytotoxic, single point]"}
{"smiles": "Cc1cccc(NC(=O)CN2C(=O)N/C(=C/c3ccc(-c4cccc(C(=O)O)c4C)o3)C2=O)c1", "activity change, negative = cytotoxic": "inactive: -1.6%"}
{"smiles": "COC(=O)c1cccc2c1NC(=O)C2=O", "Potency": "inconclusive: 29.1 µM [cytotoxic, single point]"}
{"smiles": "O=c1[nH][nH]c(=O)c2cc([N+](=O)[O-])ccc12", "activity change, negative = cytotoxic": "inconclusive: -77.8%"}
{"smiles": "CCc1cc2c(=O)[nH]c(CC(N)=O)nc2s1", "Potency": "inconclusive: 16.4 µM [rising, partial curve, poor fit]"}
{"smiles": "O=C(Nc1cccc(S(=O)(=O)N2CCCCC2)c1)c1ccc2c(c1)OCO2", "Potency": "inconclusive: 16.4 µM [cytotoxic, single point]"}
{"smiles": "CC(C)CCNC(=O)CCc1nnc(Cc2c[nH]c3ccccc23)o1", "Potency": "inconclusive: 10.3 µM [rising, partial curve]"}
{"smiles": "CC(C)(C)C(c1nc2ccccc2[nH]1)n1c(-c2cccc(S(C)(=O)=O)c2)nc2ccccc21", "note": "(stereo unspecified)", "activity change, negative = cytotoxic": "inactive: 5.96%"}
{"smiles": "COC(=O)C(Cc1ccccc1)NC(=O)COc1ccc(C(C)(C)C)cc1", "note": "(stereo unspecified)", "Potency": "inconclusive: 35.5 µM [cytotoxic, single point]"}
{"smiles": "Cc1ccc(Cn2c(=O)n(C)c(=O)c3sccc32)cc1", "Potency": "inconclusive: 18.4 µM [cytotoxic, single point]"}
{"smiles": "COc1cccc(OC(=O)c2cc3ccccc3oc2=O)c1", "Potency": "inconclusive: 18.4 µM [cytotoxic, single point]"}
{"smiles": "Cc1cc(OCc2cc(C(=O)NCCN3CCCCC3CO)no2)cc(C)c1Cl", "note": "(stereo unspecified)", "activity change, negative = cytotoxic": "inactive: -4.62%"}
{"smiles": "COc1ccc(CC(=O)Nc2cccc(C(=O)NN3C(=O)c4ccccc4C3=O)c2C)cc1", "Potency": "inconclusive: 0.651 µM [cytotoxic, full curve, poor fit]"}
{"smiles": "Cc1ccc(S(=O)(=O)CC(=O)c2ccc3c(c2)OCCO3)cc1", "Potency": "inconclusive: 29.1 µM [rising, single point]"}
{"smiles": "Cc1ccc(-c2cc(C(=O)NCCCN3CCCC3)c3ccccc3n2)cc1C", "Potency": "inconclusive: 18.4 µM [cytotoxic, partial curve]"}
{"smiles": "CC1SC(c2ccc(F)cc2)NC1=O", "note": "(stereo unspecified)", "activity change, negative = cytotoxic": "inactive: 3.96%"}
{"smiles": "Cc1ccc(NC(=S)Nc2ccc(Cl)c(Cl)c2)c(OC(F)F)c1", "Potency": "inconclusive: 29.1 µM [cytotoxic, single point]"}
{"smiles": "C/C(=N\\NC(=O)c1c(Cl)c(C)nn1C)c1ccc(NC(=O)c2ccncc2)cc1", "activity change, negative = cytotoxic": "inactive: -3.04%"}
{"smiles": "O=C(Nc1ccnn1C1CCN(CC2CC=CCC2)CC1)c1ccccc1", "note": "(stereo unspecified)", "Potency": "inconclusive: 29.1 µM [cytotoxic, single point]"}
{"smiles": "NC(=O)COc1ccc(-c2noc(COc3ccccc3[N+](=O)[O-])n2)cc1", "activity change, negative = cytotoxic": "inactive: 2.59%"}
{"smiles": "CC(C)C(C(=O)OCC(=O)c1cccc([N+](=O)[O-])c1)N1C(=O)[C@@H]2[C@H]3CC[C@H](C3)[C@@H]2C1=O", "note": "(stereo partly specified)", "activity change, negative = cytotoxic": "inactive: -0.721%"}
{"smiles": "Cc1ccccc1N1CCN(c2ncnc3scc(-c4cccs4)c23)CC1", "Potency": "inconclusive: 20.6 µM [cytotoxic, single point]"}
{"smiles": "O=C(Nc1ccc(N2CCOCC2)cc1)c1csc([C@@H]2C[C@H](O)[C@@H](CO)O2)n1", "activity change, negative = cytotoxic": "inactive: 0%"}
{"smiles": "Cc1ccc(S(=O)(=O)N2CCN(c3ncnc4sccc34)CC2)cc1", "Potency": "inconclusive: 16.4 µM [cytotoxic, single point]"}
{"smiles": "COc1cccc(CNC(=O)C2=C(C)C(=O)OC23CCN(C(C)=O)CC3)c1OC", "Potency": "inconclusive: 0.0259 µM [rising, full curve]"}
{"smiles": "COc1ccc2c(c1)C(CC(C)=O)N(c1ccc(-c3cccs3)cc1)C(c1ccsc1)=C2", "note": "(stereo unspecified)", "Potency": "active: 10.3 µM"}
{"smiles": "C/C(Cl)=C\\Cn1c(O)c(N=NC(N)=S)c2ccccc21", "Potency": "inconclusive: 16.4 µM [cytotoxic, partial curve]"}
{"smiles": "Cc1c(C(=O)NCc2cccnc2)oc2ccc(S(=O)(=O)N3CCCCC3)cc12", "Potency": "inconclusive: 25.9 µM [cytotoxic, partial curve, poor fit]"}
{"smiles": "Cc1cccc(CNC(=O)c2ccc(N3Cc4ccccc4Oc4ncccc43)s2)c1", "activity change, negative = cytotoxic": "inactive: -0.0208%"}
{"smiles": "CSc1ccc(Cl)c(C(=O)Nc2ccc(C)cn2)c1", "Potency": "inconclusive: 20.6 µM [cytotoxic, single point]"}
{"smiles": "O=C(N/N=C/c1ccc(Br)s1)c1cccs1", "Potency": "inconclusive: 18.4 µM [cytotoxic, single point]"}
{"smiles": "O=C(COc1ccc(F)cc1)Nc1ccc(-n2cnnn2)cc1", "Potency": "inconclusive: 29.1 µM [rising, single point]"}
{"smiles": "O=C1CCSc2ccc(Cl)cc2N1Cc1cccc(Cl)c1", "activity change, negative = cytotoxic": "inactive: -24.9%"}
{"smiles": "COc1cc(/C=C(\\C#N)C(=O)Nc2ccc3ccccc3c2)c([N+](=O)[O-])cc1OC", "Potency": "inconclusive: 29.1 µM [cytotoxic, single point]"}
{"smiles": "CCOC(=O)C1CCN(S(=O)(=O)c2ccc3c(c2)NC(=O)CS3)CC1", "activity change, negative = cytotoxic": "inactive: -12.5%"}
{"smiles": "CC(C)c1ccc(N2C(=O)CSC23C(=O)N(Cc2cccc(F)c2)c2ccccc23)cc1", "note": "(stereo unspecified)", "Potency": "active: 20.6 µM"}
{"smiles": "CC1Cc2cc(S(=O)(=O)N3CCCCC3)ccc2N1C(=O)C1CCC1", "note": "(stereo unspecified)", "activity change, negative = cytotoxic": "inactive: -14.2%"}
{"smiles": "COc1ccc(-c2cc(=O)c3c(C)cc(O)cc3o2)cc1", "activity change, negative = cytotoxic": "inactive: -14.9%"}
{"smiles": "N=c1n(CC(=O)c2ccc([N+](=O)[O-])cc2)c2ccccc2n1Cc1ccccc1Cl", "Potency": "inconclusive: 18.4 µM [cytotoxic, single point]"}
{"smiles": "N#Cc1ccsc1NC(=O)CN(Cc1ccccc1)Cc1ccccc1", "Potency": "inconclusive: 23.1 µM [cytotoxic, partial curve, poor fit]"}
{"smiles": "COc1cc(OC)cc(C(=O)Nc2nc(-c3ccccc3)c(-c3ccccc3)o2)c1", "Potency": "inconclusive: 7.31 µM [cytotoxic, partial curve, poor fit]"}
{"smiles": "Cn1c(Sc2nc3ccccc3n2C)nc2ccccc21", "Potency": "inconclusive: 29.1 µM [cytotoxic, single point]"}
{"smiles": "CCOC(=O)c1cccc(NC(=O)CCS(=O)(=O)c2ccc3c(c2)CC(=O)N3C)c1", "activity change, negative = cytotoxic": "inactive: 2.8%"}
{"smiles": "CC1(C(=O)Nc2cccc3ccccc23)CCN1C(=O)Cc1ccc(Cl)cc1Cl", "note": "(stereo unspecified)", "Potency": "inconclusive: 29.1 µM [cytotoxic, single point]"}
{"smiles": "Cc1ccc(S(=O)(=O)Nc2ccc3c(c2)nc(CCN2CCN(c4ccccn4)CC2)n3C)cc1", "activity change, negative = cytotoxic": "inactive: -1.55%"}
{"smiles": "COc1ccc(C(=O)COC(=O)c2cc([N+](=O)[O-])ccc2N2CCOCC2)c(OC)c1", "activity change, negative = cytotoxic": "inactive: 13.9%"}
{"smiles": "Cc1ccc(-n2c(=O)c3cccnc3n2CC(=O)Nc2cc(C)cc(C)c2)cc1", "activity change, negative = cytotoxic": "inactive: -4.43%"}
{"smiles": "C#CCNC(=O)C[C@@H]1C[C@@]2(C(=O)OC)CCCCC=C2N(Cc2ccc3c(c2)OCO3)C1=O", "activity change, negative = cytotoxic": "inactive: -4.1%"}
{"smiles": "Cc1ccc(S(=O)(=O)CC(=O)N(CCCN2CCOCC2)c2nc3c(F)cccc3s2)cc1", "activity change, negative = cytotoxic": "inactive: 5.28%"}
{"smiles": "CN(c1ccc(F)cc1)S(=O)(=O)c1ccc(Cl)c(C(=O)Nc2ccncc2)c1", "Potency": "inconclusive: 1.84 µM [cytotoxic, partial curve]"}
{"smiles": "Clc1ccccc1-c1nnc2sc(-c3ccc4c(c3)OCO4)nn12", "Potency": "active: 20.6 µM"}
{"smiles": "CSc1nc2nccc(/C=C\\c3ccccc3)n2n1", "Potency": "inconclusive: 29.1 µM [cytotoxic, single point]"}
{"smiles": "CCN1C(=O)[C@@H]2[C@H](C1=O)[C@@H]1C[C@H]3C(=O)N(CC)C(=O)[C@H]3[C@@H]3C1=C(C(=O)N1C(=O)OC(=NCC4CC4)[C@]31C)[C@@H]2C", "activity change, negative = cytotoxic": "inactive: 0%"}
